The values that follow come from the DeepSol protein solubility set.

The nature of the data set: soluble on expression in E. coli; label from the status in PepcDB or PDB records.

As for “MSLSDINRVYLVTGAASGIGRATARLLAAPGTALMLHTRSNAAGLDAAAAEAEAQGAVVAKCLGDLAGEAAATDAVAAAQTAFGRLDGLILVGGHARRGSAIGTPADEFRQAMDESALAFTRLVDAALPLLRAGRDARIVAVSSFVAHAIRPEFAPFAATAASRSALEALVRLAAVELAKDGITVNAVSPGLIVKDKPSESRLSPEQIAATEALIPMRRRGRPEEVAEIIAFLASPKASYVTGQVWHVNGGLTEGHHHHHH”, the “soluble on expression in E. coli” value is “soluble”.

As to “MPYANQPNIEVTELTNDIIKFVLWDTDLSVANSLRRVFMAEVPTIAIDWVQIETNTSVLHDEFIAHRMGLIPFISDYHVEKMQYTRDCECAEFCDECSIPFILQMKCKDEATLAVTTEHLMPMHNLDTTVRPACGKALRERGSTRDEFHNREEILIVKLRKGQELNLKAYVKKGFGKEHAKWNPTCGVAFEYDPDNALRHTIYPNVEEWPRSDHSSLPEDSTEKEAPFEPDNKPNKFWFSIEGTGALPAQRIVTMGIGILKRKLEELNMALSNELQAHAQQHILIFHFVKKHTSYNTAFFSQNMVCGDCEKKLTKIVGVDPYRNKKVNRNADGSGPKTVTTKNRLIGVQKKATIVGAKCKLCKMLIHQPGSHYCSTCAYQKGICAMCGKKIQNTKGLRQSTT”, the “soluble on expression in E. coli” value is listed as “not soluble”.

For the sequence “MSLGDAIKAFIQNRNSRETNPSPSNQAKEANRSVASSKKQALRTSVLIDAPLLSQLPELPRGCEVTSLAMLLNHAGIRVDKMTLAKQIKKNPTPYQVRNGQVFYGHPNEGFVGDMYTLSKPGYGVYHKPIKQLAERYLPNQIIDLTGQSFENIYTYLAKGTPVWVITNTTFRPLPPSAFREWQTPQGPIKITYREHAVLITGYDEQYIYFNDPLTAVKNQKAPKQDFIDAWVQMGRQAITYHREGHHHHHH”, the “soluble on expression in E. coli” value was “soluble”.

With “MLSFQYPDVYRDETAIQDYHGHKVCDPYAWLEDPDSEQTKAFVEAQNKITVPFLEQCPIRGLYKERMTELYDCPKYSCHFKKGKRYFYFYNTGLQNQRVLYVQDSLEGEARVFLDPNILSDDGTVALRGYAFSEDGEYFAYGLSASGSDWVTIKFMKVDGAKELPDVLERVKFSCMAWTHDGKGMFYNAYPQQDGKSDGTETSTNLHQKLYYHVLGTDQSEDILCAEFPDEPKWMGGAELSDDGRYVLLSIREGTDPVNRLWYCDLQQESNGITGILKWVKLIDNFEGEYDYVTNEGTVFTFKTNRHSPNYRLINIDFTDPEESKWKVLVPEHEKDVLEWVACVRSNFLVLCYLHDVKNTLQLHDLATGALLKIFPLEVGSVVGYSGQKKDTEIFYQFTSFLSPGIIYHCDLTKEELEPRVFREVTCKGIDASDYQTVQIFYPSKDGTKIPMFIVHKKGIKLDGSHPAFLYGYGGFNISITPNYSVSRLIFVRHMGGVLAVANIRGGGEYGETWHKGGILANKQNCFDDFQCAAEYLIKEGYTSPKRLTINGGSNGGLLVATCANQRPDLFGCVIAQVGVMDMLKFHKYTIGHAWTTDYGCSDSKQHFEWLIKYSPLHNVKLPEADDIQYPSMLLLTADHDDRVVPLHSLKFIATLQYIVGRSRKQNNPLLIHVDTKAGHGAGKPTAKVIEEVSDMFAFIARCLNIDWIP”, the “soluble on expression in E. coli” value is given as “soluble”.

For the sequence “SANAILLVSEDQRSVQRAEEPHDLPDNPERFEWRYCVLGCESFMSERHYWEVEVGDRKEWHIGVCSKNVERKKVWVKMTPENGYWTMGLTDGNKYRALTEPRTNLKLPEPPRKVGVILDYETGHISFYNATDGSHIYTFLHASSSEPLYPVFRILTLEPTALTVCPIPKVESSPDPDLVPDHSLEIPLTPGLANESGEPQAEVTSLLLPAQPGAKGLTLHNSQSEP”, the “soluble on expression in E. coli” value is listed as “soluble”.

“MHHHHHHSSGRENLYFQGGPAIGIDLGTTYSCVGVWRNDTVDIVPNDQGNRTTPSYVAFTETERLIGDAAKNQVARNPENTVFDAKRLIGRKFDDQAVQSDMTHWPFKVVRGPKDKPIISVNYLGEKKEFHAEEISAMVLQKMKEISEAYLGRQIKNAVVTVPAYFNDSQRQATKDAGAIAGLNVMRIINEPTAAAIAYGLDKKGTGERNVLIFDLGGGTFDVSLLTIEDGIFEVKATAGDTHLGGEDFDNRLVEFCVQDFKRKNRGMDLTTNARALRRLRTQCERAKRTLSSSTQATIELDSLYEGIDYSVAISRARFEELCADYFRATLAPVEKVLKDAGMDKRSVHDVVLVGGSTRIPKVQALIQEFFNGKEPCKAINPDEAVAYGAAVQAAILNGE”: the “soluble on expression in E. coli” value was “soluble”.

Turning to “MAVSTGVKVPRNFRLLEELEEGQKGVGDGTVSWGLEDDEDMTLTRWTGMIIGPPRTNYENRIYSLKVECGPKYPEAPPSVRFVTKINMNGINNSSGMVDARSIPVLAKWQNSYSIKVVLQELRRLMMSKENMKLPQPPEGQTYNN”, the “soluble on expression in E. coli” value is listed as “soluble”.

As for “MPGKNSKKMIGACVVTAALLCAPSALKAEGMLSHYTCVADAIQKDNRPEPAKRLFRSQAVENEIIRVQKLLRNSKLAWMFTNCFPNTLDTTVHFRKGKDGKPDTFVYTGDIHAMWLRDSGAQVWPYVQLANSDPELKTMLAGVINRQFKCINIDPYANAFNDGPKGGEWMSDLTDMKPELHERKWEIDSLCYPLRLAYQYWKTTGDTSIFDEEWIQAITNILRTFKEQQRKDGVGPYKFQRKTERALDTVTNDGLGNPVKPVGLIVSTFRPSDDATTLQYLVPSNFFAVSSLRKAAEILTTVNKKTALANECKALANEVETALKKYAVYNHPKYGKIYAFEVDGFGNHMLMDDANVPSLLAMPYLGDVSIDDPIYQNTRRFVWSLDNPYFFKGKAGEGIGGPHIGYDMVWPMSIMMKAFTSKDDAEIKSCIEMLMNTDAGTGFMHESFHKDNPEKFTRAWFAWQNTLFGELILKLVNEGKVDMLNSIQLEHHHHHH”, the “soluble on expression in E. coli” value is “soluble”.

Consider “MAHHHHHHMTSKSFLLSFLKYKHVNTYIFEKSFSKILKNTKKHIDCHLKSCFVTMNEKKEHVLEGEKNKRVVNASKDKKKEEEGEVDPRLYFENRSKFIQDQKDKGINPYPHKFERTISIPEFIEKYKDLGNGEHLEDTILNITGRIMRVSASGQKLRFFDLVGDGEKIQVLANYSFHNHEKGNFAECYDKIRRGDIVGIVGFPGKSKKGELSIFPKETILLSACLHMLPMKYGLKDTEIRYRQRYLDLLINESSRHTFVTRTKIINFLRNFLNERGFFEVETPMMNLIAGGANARPFITHHNDLDLDLYLRIATELPLKMLIVGGIDKVYEIGKVFRNEGIDNTHNPEFTSCEFYWAYADYNDLIKWSEDFFSQLVYHLFGTYKISYNKDGPENQPIEIDFTPPYPKVSIVEEIEKVTNTILEQPFDSNETIEKMINIIKEHKIELPNPPTAAKLLDQLASHFIENKYNDKPFFIVEHPQIMSPLAKYHRTKPGLTERLEMFICGKEVLNAYTELNDPFKQKECFKLQQKDREKGDTEAAQLDSAFCTSLEYGLPPTGGLGLGIDRITMFLTNKNSIKDVILFPTMRPAN”, for which the “soluble on expression in E. coli” value is “not soluble”.

Take “MTSPNIFQDWADVYEFIERDSSRKNVPAIEAIERRLAFSPLITPNPGAKQFAPIHVPGREPPRMLLPPTPHFQAPFSPHPPPVQQVPSYSPPHAPPSYETYPEVYYPPHIICNPYDVPTTSDRNPPYYTEVTTVSAVTLHSMTPPTHKIETPPSSPENSFGPLASQLPAIKMEIPMHPLPHNGELDSTRSSPSSTTSSERSPLQRKSRIESNKRNPTDKKFVVHACTYPGCFKKYSKSSHLKAHERTHSGEKPFVCKWQNCSWKFARSDELTRHMRKHTGDKPFRCSLCDRNFARSDHLSLHMKRHSTI”: the “soluble on expression in E. coli” value is listed as “not soluble”.

Regarding “MANLNQKKYPAKDDFPNFEGHKSLLSKYLTADMYAKLRDVATPSGYTLDRAIQNGVDNPDFHLGLLAGDEETYTVFADLFDPVIEEYHNGFKKTDNHKTDLDASKILDDVLDPAYVISSRVRTGRNIRGMALSPHVCRSERRAIEKMVSEALNSLAADLKGKYYSLMKMDEKTQQQLIDDHFLFDRPVSRHFTSGGMARDFPDGRGIWHNDKKNFLVWINEEDHTRIISMQMGGNMKEVFERFTRGLTEVEKHIKDKTGKEFMKNDHLGFVLTCPSNLGTGVRCSVHAKLPHMAKDKRFEEICTKMRLQKRGTSGEFTESVGGVYDISNLDRLGSSEVEQVNCVIKGVKVLIEMEKKLEKGESIDDLVPK”, the “soluble on expression in E. coli” value is “soluble”.

Consider “MDENINFKQSELPVTCGEVKGTLYKERFKQGTSKKCIQSEDKKWFTPREFEIEGDRGASKNWKLSIRCGGYTLKVLMENKFLPEPPSTRKKVTIK”, for which the “soluble on expression in E. coli” value is on record as “soluble”.

On to “MSKRRVVVTGLGMLSPVGNTVESTWKAVLAGQSGISLIDHFDTSAYATRFAGLVKDFNCEDYISRKDARKMDAFIQYGVAAGMQAMQDAGLDITEANASRIGAAIGSGIGGLGLIEENHTALVNGGPRKISPFFVPSTIVNMIAGHLTIMYGLRGPSISIATACTSGVHNIGHAARIIAYNDADVMVAGGAEKASTPLGVGGFGAARALSTRNDNPQAASRPWDKDRDGFVLGDGAGMMVLEEYEHAKKRGAKIYAEVVGFGMSSDAYHMTSPPEDGSGAALAMVNALRDAGITTSQIGYINAHGTSTPAGDKAETQAVKSVFGEDAYKVMVSSTKSMTGHLLGAAGAVESIFTVLALRDQAIPATINLDNPDEGCDLDYVPHDARQVKDMEYTLCNSFGFGGTNGSLVFRKV”, for which the “soluble on expression in E. coli” value is listed as “not soluble”.

For the sequence “SWKASAGHAVSITQDDGGADDWETDPDFVNDVSEKEQRWGAKTVQGSGHQEHINIHKLRENVFQEHQTLKEKELETGPKASHGYGGKFGVEQDRMDRSAVGHEYQSKLSKHCSQVDSVRGFGGKFGVQMDRVDQSAVGFEYQGKTEKHASQKDYSSGFGGKYGVQADRVDKSAVGFDYQGKTEKHESQKDYSKGFGGKYGIDKDKVDKSAVGFEYQGKTEKHESQKDYVKGFGGKFGVQTDRQDKCALGWDHQEKLQLHESQKDYAKGFGGKYGVQKDRMDKNASTFEEVVQVPSAYQKTVPIEAVTSKTSNIRANFENLAKEREQEDRRKAEAERAQRMAKERQEQEEARRKLEEQARAKKQTPPASPSPQPIEDRPPSSPIYEDAAPFKAEPSYRGSEPEPEYSIEAAGIPEAGSQQGLTYTSEPVYETTEAPGHYQAEDDTYDGYESDLGITAIALYDYQAAGDDEISFDPDDIITNIEMIDDGWWRGVCKGRYGLFPANYVELRQ”, the “soluble on expression in E. coli” value is “soluble”.

As for “MGKGFQNFMSKKDFHPSAFRNLKMVWEARQKKSLEDKRQEELRVAYEKEQEILNNKALLGDEKAKMGLSFMYDAPAGMTKREEPKEEPKFEWQRKYQAPREDWAKGNEEIQDQPFGIQVRNVRCCKCHKWGHINTDRECPLFGKSGNFEDEGYANNPSDLIKDLRRRRQEGKAGPSTSKSSAAAATGEDDDEDEWMDHQQLASDMREEHGIKLKSSVLAGMQTDQQLTRMKKEMTEEEMMLEFFNSMTEKEKKKLHKKLMSGADLEDVMKKKSKKEKKKEKKEKRKNKDKKKDKKKNKKSKSRETDDDSDGSDSEDDWKEKSSKRIKREVESSPEYRSKYIKQEVLSEDENSHGRKDSSRKRAHNDSESSNEVRSSERKRSRRDDSPNAKRSIGLKSPERRSSRDRKSSPKQRQDSPVRRRRSPSSIRKESQRVRKHSPEQKRNGRHDSRSVSPVRRRRSPSPDNRQLGSRKQYSPLRRRQSSPMVASPRRRRSPSPERQRKRRSPSDSPPTRRLSTSPIRRRRSPSPNKLPVRRRRHDSGSPDRDGSESPKMWRKKSHK”, the “soluble on expression in E. coli” value is on record as “not soluble”.

On to “MGSDKIHHHHHHMQSFDIESLIGVNKVPSLVEMVAASRASSFSPPFEQQHHDPMGVVAAAAAAAAAGRHHPYDNRDDGQMRRYRTAFSREQIGRLEREFAKENYVSRKTRGELAAELNLPEGTIKVWFQNRRMKDKRQRVGGLAWPFPPQMAAYMLNPFAYEMWMKTAAASQFGATGPGNGAYGNNGSSTSPSAAGSLPFLPPLGFPSFLSQNSTKSPSSPHSDDSSKSKNTSSDDDESKPVNFSNSPSSSSPSPYSTD”, for which the “soluble on expression in E. coli” value is “not soluble”.
